This experiment addresses Exportin 1 (human (endogenous in HEC-1A)) (UniProt O14980). Kind of experiment: co-IP; HEC-1A whole-cell lysates in RIPA lysis buffer with protease inhibitors; protein A or G magnetic beads prebound with anti-EIF1AX, anti-FLAG, anti-IPO13, anti-XPO1 or normal IgG control; western blotting.

Protein sequences, listed by entry. Tags and fused reporters are not part of them. Lines headed by an entry give the natural chain unless they say otherwise; changes in a name come on top.
UniProt O14980: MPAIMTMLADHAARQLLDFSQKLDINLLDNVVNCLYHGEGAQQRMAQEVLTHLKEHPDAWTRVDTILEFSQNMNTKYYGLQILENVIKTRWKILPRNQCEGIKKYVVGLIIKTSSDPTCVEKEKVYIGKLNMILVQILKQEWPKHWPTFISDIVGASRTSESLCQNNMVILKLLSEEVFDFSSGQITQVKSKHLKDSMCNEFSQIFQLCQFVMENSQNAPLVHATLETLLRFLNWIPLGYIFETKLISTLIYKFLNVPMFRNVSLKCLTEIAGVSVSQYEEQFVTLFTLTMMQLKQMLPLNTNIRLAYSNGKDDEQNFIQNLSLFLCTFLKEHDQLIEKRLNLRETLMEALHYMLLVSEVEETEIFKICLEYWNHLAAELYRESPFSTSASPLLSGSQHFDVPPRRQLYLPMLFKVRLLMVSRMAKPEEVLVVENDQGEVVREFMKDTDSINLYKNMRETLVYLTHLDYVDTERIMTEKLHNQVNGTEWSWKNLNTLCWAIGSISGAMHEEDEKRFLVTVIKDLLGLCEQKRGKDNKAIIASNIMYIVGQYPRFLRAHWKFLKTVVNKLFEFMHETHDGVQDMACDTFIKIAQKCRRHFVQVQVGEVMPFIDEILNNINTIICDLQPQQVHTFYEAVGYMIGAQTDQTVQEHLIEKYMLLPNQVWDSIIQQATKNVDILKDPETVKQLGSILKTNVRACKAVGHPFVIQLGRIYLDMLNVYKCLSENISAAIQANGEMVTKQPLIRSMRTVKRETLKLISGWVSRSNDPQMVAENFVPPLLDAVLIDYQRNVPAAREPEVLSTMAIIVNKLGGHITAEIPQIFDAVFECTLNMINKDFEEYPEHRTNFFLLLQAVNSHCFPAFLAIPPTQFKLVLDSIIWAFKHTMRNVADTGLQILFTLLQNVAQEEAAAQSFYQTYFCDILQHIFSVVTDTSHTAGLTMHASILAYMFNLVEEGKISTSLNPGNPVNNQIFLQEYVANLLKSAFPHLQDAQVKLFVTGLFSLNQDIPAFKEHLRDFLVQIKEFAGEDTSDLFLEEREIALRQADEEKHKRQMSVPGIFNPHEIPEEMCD
UniProt P47813: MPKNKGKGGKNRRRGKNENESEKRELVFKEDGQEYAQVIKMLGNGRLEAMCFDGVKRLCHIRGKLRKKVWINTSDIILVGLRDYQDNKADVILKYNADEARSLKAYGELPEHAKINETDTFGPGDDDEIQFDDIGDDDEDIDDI

The source of these data is article PMC9800903.

No constants are given. Whether binding was seen depends on the method and setting. In cells and extracts the contact can be indirect.

Consider EIF1AX-NLSmut (from UniProt P47813), for which the binding entry is given as “no binding”.
